# PubChem BioAssay AID504793 – Drosophila RNAi Screening Center, 2011
# Purpose: 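Knock-downs allowing continued mitosis even though DNA is damaged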 (primary screen)
# Cell system: Drosophila S2R+ cells
# Reagent: long dsRNA against Drosophila genes, about 0.25 µg dsRNA per well
# Time to read-out: 4 days of dsRNA, then 4 hours of drug before read-out
# Challenge: doxorubicin 0.5 µM for 4 hours to cause double-strand breaks, in cells also given a low, harmless dose of dsRNA against nbs to sensitise the assay
# Read-out: 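Per-well count of mitotic cells stained for phospho-histone H3 after doxorubicin exposure, used as mitotic index; counts are raw and not normalised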
# Direction: mitotic cells: higher = more cells in mitosis, weaker G2 arrest
# Hit rule: 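Genes are called active only when high mitotic counts were reproduced with independent dsRNAs and mitosis was checked for delay without damage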
# Meaning of the calls: active = confirmed in follow-up tests; inactive = not confirmed
# The deposit covers about 23,000 reagents; shown is a random part of those with a known target gene and a result. Of all reagents, 62 (0.27%) were called active. 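Calls come from follow-up tests whose scores are not deposited, so confirmed genes may have low counts here; counts are not normalised per plate.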 Raw values are not corrected between plates. A number with no mark means an inactive call. The numbers tell different reagents against one gene apart. Reagent sequences are not shown.
gene,reagent,"mitotic cells, replicate 1","mitotic cells, replicate 2"
FucTB (GeneID 34260),1,4,
Prat (GeneID 40935),1,8,
Zip42C.2 (GeneID 35580),1,6,
Zip42C.2 (GeneID 35580),2,3,
CG14693 (GeneID 41299),1,1,
nbs (GeneID 44259),1,5,
nbs (GeneID 44259),2,9,
GstT3 (GeneID 33047),1,9,
nSMase (GeneID 38396),1,9,
CG33095 (GeneID 43012),1,10,
CG33341 (GeneID 2768683),1,16,
CG33341 (GeneID 2768683),2,7,
Cpr97Ea (GeneID 43258),1,11,
Cpr97Ea (GeneID 43258),2,7,
Mdr65 (GeneID 38726),1,7,11
CSN5 (GeneID 42000),1,16,
CSN5 (GeneID 42000),2,7,
CSN5 (GeneID 42000),3,13,
LUBEL (GeneID 33950),1,2,
LUBEL (GeneID 33950),2,6,
CG18265 (GeneID 39947),1,5,
Pgk (GeneID 33461),1,11,
Pgk (GeneID 33461),2,7,
Tsp86D (GeneID 41310),1,3,
CG3764 (GeneID 39902),1,7,
kdn (GeneID 31579),1,14,
CG32198 (GeneID 317909),1,9,
CG32198 (GeneID 317909),2,3,
CG17760 (GeneID 36385),1,9,
CG17760 (GeneID 36385),2,7,
wake (GeneID 42676),1,7,
wake (GeneID 42676),2,12,
DNaseII (GeneID 48228),1,9,
CG9518 (GeneID 32416),1,10,
CG9518 (GeneID 32416),2,5,
Gr93c (GeneID 117471),1,12,
bark (GeneID 33604),1,7,
bark (GeneID 33604),2,3,
CG4853 (GeneID 36974),1,8,
CG4853 (GeneID 36974),2,6,
Lcp65APsi (GeneID 3771993),1,4,
Lcp65APsi (GeneID 3771993),2,4,
Nup43 (GeneID 42209),1,12,
CG15499 (retired record) (GeneID 42546),1,6,
CG30151 (GeneID 246484),1,10,
CG30151 (GeneID 246484),2,3,
hpRNA:CR18854 (GeneID 10178800),1,6,
hpRNA:CR18854 (GeneID 10178800),2,10,
CG15084 (GeneID 37178),1,7,
CG15084 (GeneID 37178),2,19,
CG15084 (GeneID 37178),3,13,
Tdrd3 (GeneID 39612),1,1,
mnd (GeneID 39625),1,1,
CG42633 (GeneID 8674052),1,5,
CG17707 (GeneID 5740408),1,6,
Kank (GeneID 36668),1,9,
Kank (GeneID 36668),2,8,
CG2336 (GeneID 40804),1,12,
ranshi (GeneID 41041),1,5,
ranshi (GeneID 41041),2,4,
RNaseX25 (GeneID 38885),1,6,
RNaseX25 (GeneID 38885),2,8,
CG11398 (GeneID 31070),1,14,
Coop (GeneID 35677),1,7,
Coop (GeneID 35677),2,6,
CG14891 (GeneID 42013),1,10,
CG18568 (GeneID 36549),1,4,
CG18568 (GeneID 36549),2,10,
c(2)M (GeneID 34964),1,5,
pHCl-1 (GeneID 39730),1,4,
pHCl-1 (GeneID 39730),2,13,
PhKgamma (GeneID 32120),1,6,
PhKgamma (GeneID 32120),2,5,
Acp26Ab (GeneID 33816),1,8,
Acp26Ab (GeneID 33816),2,7,

Single entries from the list.
c(2)M (GeneID 34964), mitotic cells, replicate 1 → 5
Acp26Ab (GeneID 33816) #1, mitotic cells, replicate 1 = 8
For “mitotic cells, replicate 1”, CSN5 (GeneID 42000) #2 is entered as 7
Result for Zip42C.2 (GeneID 35580) #1 under “mitotic cells, replicate 1”: 6
